Laboratory results: PubChem BioAssay AID1259254 (NCATS, 2017)

Screen: 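Finding genes that stop cells copying their DNA twice in one cycle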 (primary screen)
Cells: human HCT116 colorectal cancer cells
Reagents: single siRNA against human genes
Duration: 3 days
Detection: 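Nuclei stained with Hoechst and imaged; cell-cycle phase assigned by DNA content; G2 share scaled per plate, non-targeting siRNA 0%, GMNN siRNA 100%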
Scale: G2 robust z-score: higher = more G2 cells, more excess DNA replication
Active means: 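Active siRNAs have a G2 robust z of 5 or more median absolute deviations over the median, which in these data means about 38% or higher of GMNN control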
Shown is an unselected part of about 59,000 reagents. About 1,550 of them (2.6%) count as active. 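G2 share is only a proxy for re-replication; each gene was hit by three separate siRNAs, and active genes were retested.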 Reagents against one gene are numbered here. Further read-outs or replicates are left out here. Not given: the amount of reagent.

{"target": "COPS7B (COP9 signalosome subunit 7B)", "reagent no.": 1, "G2 robust z-score": 2.6, "call": "inactive"}
{"target": "COPS7B (COP9 signalosome subunit 7B)", "reagent no.": 2, "G2 robust z-score": 1.94, "call": "inactive"}
{"target": "COPS7B (COP9 signalosome subunit 7B)", "reagent no.": 3, "G2 robust z-score": 0.511, "call": "inactive"}
{"target": "WNT10A (Wnt family member 10A)", "reagent no.": 1, "G2 robust z-score": 0.15, "call": "inactive"}
{"target": "WNT10A (Wnt family member 10A)", "reagent no.": 2, "G2 robust z-score": 0.396, "call": "inactive"}
{"target": "WNT10A (Wnt family member 10A)", "reagent no.": 3, "G2 robust z-score": 0.209, "call": "inactive"}
{"target": "USF2 (upstream transcription factor 2, c-fos interacting)", "reagent no.": 1, "G2 robust z-score": -0.238, "call": "inactive"}
{"target": "USF2 (upstream transcription factor 2, c-fos interacting)", "reagent no.": 2, "G2 robust z-score": 3.05, "call": "inactive"}
{"target": "USF2 (upstream transcription factor 2, c-fos interacting)", "reagent no.": 3, "G2 robust z-score": -0.0436, "call": "inactive"}
{"target": "C1orf105 (chromosome 1 open reading frame 105)", "reagent no.": 1, "G2 robust z-score": 1.06, "call": "inactive"}
{"target": "C1orf105 (chromosome 1 open reading frame 105)", "reagent no.": 2, "G2 robust z-score": 0.394, "call": "inactive"}
{"target": "C1orf105 (chromosome 1 open reading frame 105)", "reagent no.": 3, "G2 robust z-score": 3.75, "call": "inactive"}
{"target": "MYL10 (myosin light chain 10)", "reagent no.": 1, "G2 robust z-score": -1.05, "call": "inactive"}
{"target": "MYL10 (myosin light chain 10)", "reagent no.": 2, "G2 robust z-score": -1.22, "call": "inactive"}
{"target": "MYL10 (myosin light chain 10)", "reagent no.": 3, "G2 robust z-score": -0.49, "call": "inactive"}
{"target": "SLC17A2", "reagent no.": 1, "G2 robust z-score": 2.01, "call": "inactive"}
{"target": "SLC17A2", "reagent no.": 2, "G2 robust z-score": 1.43, "call": "inactive"}
{"target": "SLC17A2", "reagent no.": 3, "G2 robust z-score": -1.04, "call": "inactive"}
{"target": "MS4A10 (membrane spanning 4-domains A10)", "reagent no.": 1, "G2 robust z-score": 2.07, "call": "inactive"}
{"target": "MS4A10 (membrane spanning 4-domains A10)", "reagent no.": 2, "G2 robust z-score": 0.471, "call": "inactive"}
{"target": "MS4A10 (membrane spanning 4-domains A10)", "reagent no.": 3, "G2 robust z-score": -0.68, "call": "inactive"}
{"target": "NAF1 (nuclear assembly factor 1 ribonucleoprotein)", "reagent no.": 1, "G2 robust z-score": 1.49, "call": "inactive"}
{"target": "NAF1 (nuclear assembly factor 1 ribonucleoprotein)", "reagent no.": 2, "G2 robust z-score": 0.563, "call": "inactive"}
{"target": "NAF1 (nuclear assembly factor 1 ribonucleoprotein)", "reagent no.": 3, "G2 robust z-score": -0.0663, "call": "inactive"}

3 of these entries in another layout.
WNT10A (Wnt family member 10A) #2 → G2 robust z-score: 0.396; call: inactive
WNT10A (Wnt family member 10A) #3 → G2 robust z-score: 0.209; call: inactive
USF2 (upstream transcription factor 2, c-fos interacting) #1 → G2 robust z-score: -0.238; call: inactive
